Data from patent US9074014B2 (Ipsen Pharma S.A.S., priority 2008, dated 2015).

Test: Fmoc solid-phase peptide synthesis; Pre-loaded Fmoc-Gln(Trt)-Wang resin (0.59 mmole/g; Novabiochem); Rink amide MBHA resin for amides; HBTU/DIPEA (HBTU, HOBt, DIPEA for first residue)
Details: whole synthesis, analytical HPLC, 250x4.6 mm C18 (Phenomenex), 2-80% acetonitrile (0.1% TFA) over 30 minutes, scale 0.1 mmole

In the case of “H-Y[Aib]EGTF[Ac6c]SDYSIAMDKIHQQDFVNWLLAQKGKKNDWKHNIC(X1)Q-OH”, the “crude HPLC purity” value is reported as 34%.

Same assay, conditions: whole synthesis, scale 0.1 mmole

In the case of “H-Y[Aib]EGTF[Ac6c]SDYSIAMDKIHQQDFVNWLLAQKGKKNDWKHNIC(X1)Q-OH”, the crude mass is reported as “approximately 500 mg”.

Substance “H-Y[Aib]EGTF[Ac6c]SDYSIAMDKIHQQDFVNWLLAQKGKKNDWKHNIC(X1)Q-OH” has an isolated mass of 15 mg.

Test: general procedure: Fmoc solid-phase peptide synthesis; Pre-loaded Fmoc-Gln(Trt)-Wang resin (0.59 mmole/g; Novabiochem); Rink amide MBHA resin for amides; HBTU/DIPEA (HBTU, HOBt, DIPEA for first residue)
Details: whole synthesis, analytical HPLC, 250x4.6 mm C18 (Phenomenex), 2-80% acetonitrile (0.1% TFA) over 30 minutes, scale of the general procedure 0.1 mmole

Point of comparison: “H-[NMeY][Aib]EGTFISDY[Ac5c]IA[Nle]DKIHQQDFVNWLLAQKGKKNDWKHNITQ-OH”, “final HPLC purity” value 99.90%. Against it:
- (4Hyp^3, A6c^14)hGIP(1-42)-OH — the same, 99.90%
- Desaminotyrosyl-AEGTFISDYSI[Aib]MDKIHQQDFVNWLLAQKGKKNDWKHNITQ-OH — the same, 99.90%
- YAPGTFISDY[Ac5c]IA[Ac6c]DKIHQQDFVNWLLAQKGKKNDWKHNITQ-OH — the same, 99.90%
- YA[ΔPro]GTFISDYSI[Aib][Nle]DKIHQQDFVNWLLAQKGKKNDWKHNITQ-OH — the same, 99.90%
- Y[Ac5c]EGTF[Ac5c]SDYSIA[Nle]DKIHQQDFVNWLLAQK-NH2 — the same, 99.90%
- Y[Ac6c]EGTF[Ac6c]SDYSIA[Nle]DKIHQQDFVNWLLAQK-NH2 — the same, 99.90%
- Y[Aib]EGTFISDY[Ac5c]IA[Ac6c]DKIHQQDFVNWLLAQKGKKNDWKHNITQ-OH — lower, 99.00%
- Y[Aib]EGTFISDY[Ac5c]IA[Nle]DKIHQQDFVNWLLAQK-NH2 — the same, 99.90%
- Y[Aib]EGTFISDY[Aib]IA[Ac6c]DKIHQQDFVNWLLAQKGKKNDWKHNITQ-OH — lower, 99.00%
- Y[Aib]EGTF[Ac5c]SDYSIA[Ac5c]DKIHQQDFVNWLLAQKGKKNDWKHNITQ-OH — lower, 99.00%
- Y[Aib]EGTF[Ac6c]SDYSIA[Nle]DKIHQQDFVNWLLAQKGKKNDWKHNITQ-OH — lower, 99.00%

Where no end group is shown, it is not given here. [ ]: non-standard residue; d: D form. The star is where a group is joined. Desaminotyrosyl = O=C(CCc1ccc(O)cc1)*; NMeY = CN[C@@H](Cc1ccc(O)cc1)C(=O)O; ΔPro = O=C(O)[C@@H]1C=CCN1; Ac6c = NC1(C(=O)O)CCCCC1; Nle = CCCC[C@H](N)C(=O)O; X1 = CCCN1C(=O)CC(*)C1=O; Ac5c = NC1(C(=O)O)CCCC1; Aib = CC(C)(N)C(=O)O
